# Measured values from patent US20210322545A1 (priority 2016, published 2021).
# For at least one compound, name, drawing or mass did not settle the structure.
# Test system: U266, MM1R and MM1S cells
# Type: cell-based, human
SMILES,cell killing of MM cells in SMC-based combination,sensitisation of MM1S to SMC treatments
"C[C@@H]1C[C@H]2[C@@H]3CCC4=CC(=O)C=C[C@]4(C)[C@@]3(F)[C@@H](O)C[C@]2(C)[C@@]1(O)C(=O)CO [Dex, dexamethasone]",synergistic cell killing,can become sensitive
CC#C[C@]1(O)CC[C@H]2[C@@H]3CCC4=CC(=O)CCC4=C3[C@@H](c3ccc(N(C)C)cc3)C[C@@]21C [RU486],,can become sensitive
